Test results as given in PubChem BioAssay AID1688 (National Center for Advancing Translational Sciences (NCATS), 2009).
Hit rate of the full screen: of about 220,000 compounds, about 2,400 (1.1%) were called active. The shares of active, inactive and inconclusive entries below differ from those in the screen. The call rests on the fitted dose curve; in most records, active means well fitted inhibition curve with a large enough effect; inconclusive means small, poorly fitted or top-dose-only effect, or effect the other way; inactive means no such curve, though single readings can be large or run the other way. Where the call is inconclusive, the potency comes from a doubtful curve fit.

Assay: qHTS Multiplex Assay to Identify Dual Action Probes in a Cell Model of Huntington: Aggregate Formation (GFP); further: nearly all actives have a fitted effect of over 60% in size
Conditions: PC12 HttQ103-GFP aggregates, Acumen cytometry, 40 h; activity change, negative = inhibition: at 46.1 µM (top of the series) unless noted
Procedure, shortened: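 Ecdysone-promoter PC12 model expressing HTT exon 1 Q103 fused to GFP, induced by tebufenozide at 100 nM final. Compounds titrated; aggregates sized 1–25 µm scored on a 488 nm laser cytometer.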
On the % scale 0 is the no-effect control and ±100 the full control effect; potency means the concentration at half of the fitted maximal effect.

| SMILES | activity change, negative = inhibition | Potency |
| --- | --- | --- |
| O=C1c2cccc3cccc(c23)C(=O)N1CC1CCCO1 (stereo unspecified) | inactive: -12.7% |  |
| CC(=O)N(C(C)=O)S(=O)(=O)c1ccc(N=NN2CCCCC2)cc1 |  | inconclusive: 5.62 µM [activator, single point] |
| CCCOc1ccc(Cc2nc(N)nc(N)n2)cc1 |  | inconclusive: 1.41 µM [inhibitor, full curve, poor fit] |
| Nc1nnc(SCCCC(=O)c2ccc(F)cc2)s1 |  | inconclusive: 35.5 µM [inhibitor, partial curve] |
| CCOc1ccc(NC(=O)Cn2nnc(C(=O)NCCc3ccc(OC)c(OC)c3)c2N)cc1 |  | inconclusive: 11.2 µM [activator, single point] |
| c1ccc2[nH]c(CN3CCCCC3)nc2c1 |  | inconclusive: 22.4 µM [activator, single point] |
| CN(C)S(=O)(=O)c1cccc(C(=O)Nc2ccccc2[N+](=O)[O-])c1 | inactive: -14.1% |  |
| CC(C)C1CC(CCNCc2ccc3c(c2)OCO3)(c2ccccc2)CCO1 (stereo unspecified) | inactive: -19.2% [at 9.22 µM] |  |
| COc1cc(N=c2ssnc2Cl)c(OC)cc1Cl | inactive: -15.1% |  |
| CCOc1ccc2nc3c(cc2c1)CN(CCOC)C(=NC)S3 |  | inconclusive: 35.5 µM [inhibitor, single point] |
| NC(=S)N=Nc1c(O)n(Cc2ccccc2)c2ccccc12 |  | inconclusive: 8.91 µM [activator, single point] |
| Cc1ccc(N2C(=O)c3cccc4c(N5CCN(C)CC5)ccc(c34)C2=O)c2cccnc12 | inactive: -0.392% |  |
| Cc1nc(NC(=O)/C=C/c2ccco2)sc1C | inactive: -3.56% |  |
| CN(C)c1nc(C(=O)O)nc(N2CCOCC2)n1 | inactive: 5.8% [at 9.22 µM] |  |
| COc1ccc(-c2nn(-c3ccccc3)cc2C(=O)Nc2nccs2)cc1 |  | active: 17.8 µM |
| CCOCC(=O)Nc1nc2ccccc2s1 |  | inconclusive: 5.62 µM [activator, single point] |
| CCOC(=O)c1nnn(-c2nonc2N)c1-c1ccc(OCC)cc1 | inactive: 8.36% |  |
| COc1ccc2c(c1)SCCC2=O |  | inconclusive: 0.562 µM [inhibitor, full curve, poor fit] |
| CCCCc1c(C)nc2ccc(Br)cc2c1SCCC#N |  | inconclusive: 7.94 µM [inhibitor, partial curve] |
| COc1ccc(/C=C/C(=O)NC(=S)Nc2ccccc2C(=O)NC2CCCCC2)cc1 |  | inconclusive: 12.6 µM [activator, single point] |
| CC(C)(C)c1cc(C(c2cccnc2)N2CCN(CCO)CC2)cc(C(C)(C)C)c1O (stereo unspecified) |  | inconclusive: 3.16 µM [inhibitor, single point] |

Two records picked at random from the list so far:

| SMILES | activity change, negative = inhibition | Potency |
| --- | --- | --- |
| COc1ccc2c(c1)SCCC2=O |  | inconclusive: 0.562 µM [inhibitor, full curve, poor fit] |
| CCOCC(=O)Nc1nc2ccccc2s1 |  | inconclusive: 5.62 µM [activator, single point] |
